From article PMC5339705

Protein sequences, listed by entry. Tags and fused reporters are not part of them.
UniProt Q04206, whole entry: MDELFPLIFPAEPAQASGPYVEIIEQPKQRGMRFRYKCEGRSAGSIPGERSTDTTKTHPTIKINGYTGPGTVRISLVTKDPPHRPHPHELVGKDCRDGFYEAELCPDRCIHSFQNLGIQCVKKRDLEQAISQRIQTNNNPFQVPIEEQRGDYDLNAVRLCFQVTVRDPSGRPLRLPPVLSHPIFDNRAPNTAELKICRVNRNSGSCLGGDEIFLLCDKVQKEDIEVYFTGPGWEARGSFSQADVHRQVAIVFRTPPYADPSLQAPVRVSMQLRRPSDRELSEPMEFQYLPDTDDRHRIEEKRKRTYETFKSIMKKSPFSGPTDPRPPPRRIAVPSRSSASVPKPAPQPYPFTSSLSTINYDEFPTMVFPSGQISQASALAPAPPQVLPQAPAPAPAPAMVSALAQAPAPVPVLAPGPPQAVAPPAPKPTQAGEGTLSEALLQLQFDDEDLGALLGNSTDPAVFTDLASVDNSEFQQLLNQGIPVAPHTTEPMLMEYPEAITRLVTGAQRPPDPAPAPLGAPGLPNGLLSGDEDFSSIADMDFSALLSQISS
UniProt O15527, whole entry: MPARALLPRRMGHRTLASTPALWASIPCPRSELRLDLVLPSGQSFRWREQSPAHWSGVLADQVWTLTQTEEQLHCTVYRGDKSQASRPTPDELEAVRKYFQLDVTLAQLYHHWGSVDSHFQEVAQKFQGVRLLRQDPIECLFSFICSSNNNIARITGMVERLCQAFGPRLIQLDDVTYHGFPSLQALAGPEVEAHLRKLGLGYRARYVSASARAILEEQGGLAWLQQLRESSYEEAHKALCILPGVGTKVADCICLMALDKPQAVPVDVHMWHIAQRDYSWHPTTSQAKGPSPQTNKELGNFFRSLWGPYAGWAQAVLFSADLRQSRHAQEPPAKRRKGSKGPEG

What was measured:
Assay in all cases: EMSA
[1] = tested on: p65 (RelA) + p50 (NF-kB1); conditions: 10 mM Tris-HCl pH 8.0, 5 mM NaCl, 1 mM EDTA, 1 mM DTT, 0.1 mg/ml BSA, 0.1 µg/µl poly(dI-dC) (stated for NE reactions), 10 fmol probe, 10 µl, RT 5-10 min, commercial protein, label: 5' biotin on strand 2
p50 (NF-kB1) = molecular target: T1, p50 (NF-kB1) (UniProt P19838); conditions: homodimer in p65/p50 mix, 10 mM Tris-HCl pH 8.0, 5 mM NaCl, 1 mM EDTA, 1 mM DTT, 0.1 mg/ml BSA, 0.1 µg/µl poly(dI-dC) (stated for NE reactions), 10 fmol probe, 10 µl, RT 5-10 min, commercial protein, label: 5' biotin on strand 2
T1 sequence (looked up, limits assumed): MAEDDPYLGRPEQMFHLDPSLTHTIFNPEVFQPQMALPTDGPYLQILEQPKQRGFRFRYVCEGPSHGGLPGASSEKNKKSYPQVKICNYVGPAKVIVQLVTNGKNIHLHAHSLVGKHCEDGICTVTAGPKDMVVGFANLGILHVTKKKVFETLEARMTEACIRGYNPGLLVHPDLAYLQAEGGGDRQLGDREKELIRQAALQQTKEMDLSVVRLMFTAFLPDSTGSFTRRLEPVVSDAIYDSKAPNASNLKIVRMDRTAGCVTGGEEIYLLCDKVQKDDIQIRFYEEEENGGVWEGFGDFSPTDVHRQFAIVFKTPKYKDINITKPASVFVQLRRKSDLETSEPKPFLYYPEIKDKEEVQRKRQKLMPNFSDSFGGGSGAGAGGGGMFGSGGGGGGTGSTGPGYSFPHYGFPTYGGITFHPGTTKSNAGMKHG

p65 (RelA) = p65 (RelA) (UniProt Q04206); conditions: p65 alone, shift only at 15 ng/sample; 8-oxoG at strand 2 position 23 (opposite C11 of strand 1); 10 mM Tris-HCl pH 8.0, 5 mM NaCl, 1 mM EDTA, 1 mM DTT, 0.1 mg/ml BSA, 0.1 µg/µl poly(dI-dC) (stated for NE reactions), 10 fmol probe, 10 µl, RT 5-10 min; commercial protein; label: 5' biotin on strand 2
OGG1 = OGG1 (UniProt O15527); conditions: shift only with higher OGG1 amounts (data not shown), 10 mM Tris-HCl pH 8.0, 5 mM NaCl, 1 mM EDTA, 1 mM DTT, 0.1 mg/ml BSA, 0.1 µg/µl poly(dI-dC) (stated for NE reactions), 10 fmol probe, 10 µl, RT 5-10 min, commercial protein, label: 5' biotin on strand 2
[2] = no OGG1, 8-oxoG at strand 1 position 22

## TTCCCTGGTCCCCGGGCTTTTCCAGACATCG (double strand) [κB1-G2]
[1]; no OGG1, increased by OGG1, 8-oxoG at strand 2 position 19 (opposite C13 of strand 1)
  binding result: binds
p50 (NF-kB1); increased by OGG1, 8-oxoG at strand 2 position 19 (opposite C13 of strand 1)
  binding result: binds

## TGAGGGGACCCTGAGCTCAGGGAATTTCCCTGG (double strand) [κB2-Wt]
[1]; with OGG1 4 ng, stronger than NF-kB alone
  binding result: binds

## TTCCCTGGTCCCCGGGCTTTTCCAGACATCG (double strand) [κB1-G1]
[1]; no OGG1, increased by OGG1, 8-oxoG at strand 1 position 14
  binding result: binds
p50 (NF-kB1); increased by OGG1, 8-oxoG at strand 1 position 14
  binding result: binds

## TTCCCTGGTCCCCGGGCTTTTCCAGACATCG (double strand) [κB1-Wt]
[1]; no OGG1, increased by OGG1
  binding result: binds
p50 (NF-kB1); increased by OGG1
  binding result: binds

## TGAGGGGACCCTGAGCTCAGGGAATTTCCCTGG (double strand) [κB2-G6]
p65 (RelA)
  binding result: binds more weakly

## TGAGGGGACCCTGAGCTCAGGGAATTTCCCTGG (double strand) [κB2-G2]
[1]; [2]
  binding result: binds more weakly
[1]; with OGG1 4 ng, decreased vs Wt, 8-oxoG at strand 1 position 22
  binding result: binds more weakly
p50 (NF-kB1); [2]
  binding result: binds

## TGAGGGGACCCTGAGCTCAGGGAATTTCCCTGG (double strand) [κB2-G3]
OGG1; 8-oxoG at strand 1 position 4 (number label read as following the base)
  binding result: binds more weakly
p50 (NF-kB1); no OGG1, 8-oxoG at strand 1 position 4 (number label read as following the base)
  binding result: binds

## TGAGGGGACCCTGAGCTCAGGGAATTTCCCTGG (double strand) [κB2-G5]
[1]; with OGG1 4 ng, stronger than NF-kB alone, 8-oxoG at strand 2 position 4 (opposite C30 of strand 1)
  binding result: binds
OGG1; 8-oxoG at strand 2 position 4 (opposite C30 of strand 1)
  binding result: binds more weakly
p50 (NF-kB1); no OGG1, 8-oxoG at strand 2 position 4 (opposite C30 of strand 1)
  binding result: binds

## TTCCCTGGTCCCCGGGCTTTTCCAGACATCG (double strand) [κB1-G3]
[1]; no OGG1, 8-oxoG at strand 2 position 27 (opposite C5 of strand 1)
  binding result: binds
p50 (NF-kB1); increased by OGG1, 8-oxoG at strand 2 position 27 (opposite C5 of strand 1)
  binding result: binds

## TGAGGGGACCCTGAGCTCAGGGAATTTCCCTGG (double strand) [κB2-G1]
[1]; with OGG1 4 ng, stronger than NF-kB alone, 8-oxoG at strand 1 position 20
  binding result: binds
p50 (NF-kB1); no OGG1, 8-oxoG at strand 1 position 20
  binding result: binds

## TGAGGGGACCCTGAGCTCAGGGAATTTCCCTGG (double strand) [κB2-G4]
OGG1; 8-oxoG at strand 1 position 7
  binding result: binds more weakly
p50 (NF-kB1); no OGG1, 8-oxoG at strand 1 position 7
  binding result: binds

Construct, isoform or probe ends are uncertain for at least one entry. For some of these results: The comparison behind a weaker result is the experiment's own reference, which may not be listed here. For some of these results: At least one verdict was read from the data and is not stated in words by the source. For some of these results: Protein sequences can lack the tags named with them.
